We go through 6 substances from PMC10247366.

Protein sequences, listed by entry. Tags and fused reporters are not part of them. Lines headed by an entry give the natural chain unless they say otherwise; changes in a name come on top. Chains listed by the source or under a name are the forms on record and can include a tag or linker.
UniProt Q86VR2: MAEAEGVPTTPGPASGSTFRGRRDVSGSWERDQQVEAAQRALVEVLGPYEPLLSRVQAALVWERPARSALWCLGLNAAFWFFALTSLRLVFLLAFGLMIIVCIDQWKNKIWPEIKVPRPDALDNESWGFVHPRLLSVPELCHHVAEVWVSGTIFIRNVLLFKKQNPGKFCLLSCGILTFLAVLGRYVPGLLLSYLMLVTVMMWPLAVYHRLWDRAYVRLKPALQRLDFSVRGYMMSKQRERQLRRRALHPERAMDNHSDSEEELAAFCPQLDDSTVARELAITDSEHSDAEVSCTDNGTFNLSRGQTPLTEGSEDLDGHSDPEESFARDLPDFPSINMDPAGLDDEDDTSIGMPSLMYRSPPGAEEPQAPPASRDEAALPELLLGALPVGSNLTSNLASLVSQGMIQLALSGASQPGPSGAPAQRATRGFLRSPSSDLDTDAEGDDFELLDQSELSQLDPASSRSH
UniProt Q9H6L5: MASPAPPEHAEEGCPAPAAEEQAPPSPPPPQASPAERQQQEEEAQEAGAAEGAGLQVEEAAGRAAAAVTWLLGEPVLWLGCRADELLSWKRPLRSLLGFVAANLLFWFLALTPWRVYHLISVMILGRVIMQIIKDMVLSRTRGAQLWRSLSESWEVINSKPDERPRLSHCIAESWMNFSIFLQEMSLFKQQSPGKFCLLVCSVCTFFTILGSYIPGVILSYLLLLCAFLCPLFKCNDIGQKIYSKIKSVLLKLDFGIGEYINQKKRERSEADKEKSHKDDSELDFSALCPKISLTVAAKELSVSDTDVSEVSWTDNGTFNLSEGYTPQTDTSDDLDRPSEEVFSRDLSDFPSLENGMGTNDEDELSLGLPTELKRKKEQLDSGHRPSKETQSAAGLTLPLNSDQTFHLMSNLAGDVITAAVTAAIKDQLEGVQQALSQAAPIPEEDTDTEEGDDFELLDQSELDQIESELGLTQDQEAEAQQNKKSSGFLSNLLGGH
FAM134B 8KR (Flag FAM134B-IP) (Q9H6L5, form named): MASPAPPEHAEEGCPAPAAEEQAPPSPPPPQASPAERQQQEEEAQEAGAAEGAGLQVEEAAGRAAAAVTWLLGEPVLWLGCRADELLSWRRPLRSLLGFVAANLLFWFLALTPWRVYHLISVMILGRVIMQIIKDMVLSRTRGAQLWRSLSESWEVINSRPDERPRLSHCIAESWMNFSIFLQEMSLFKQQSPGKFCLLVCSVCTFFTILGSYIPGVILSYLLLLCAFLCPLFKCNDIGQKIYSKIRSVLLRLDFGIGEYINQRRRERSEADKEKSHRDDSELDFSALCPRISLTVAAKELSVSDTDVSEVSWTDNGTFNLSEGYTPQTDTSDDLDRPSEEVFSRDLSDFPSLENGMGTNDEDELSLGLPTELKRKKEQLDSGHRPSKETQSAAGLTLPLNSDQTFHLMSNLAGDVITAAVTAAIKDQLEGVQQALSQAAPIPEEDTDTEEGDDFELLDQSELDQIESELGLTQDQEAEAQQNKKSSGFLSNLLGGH
UniProt Q9UKV5: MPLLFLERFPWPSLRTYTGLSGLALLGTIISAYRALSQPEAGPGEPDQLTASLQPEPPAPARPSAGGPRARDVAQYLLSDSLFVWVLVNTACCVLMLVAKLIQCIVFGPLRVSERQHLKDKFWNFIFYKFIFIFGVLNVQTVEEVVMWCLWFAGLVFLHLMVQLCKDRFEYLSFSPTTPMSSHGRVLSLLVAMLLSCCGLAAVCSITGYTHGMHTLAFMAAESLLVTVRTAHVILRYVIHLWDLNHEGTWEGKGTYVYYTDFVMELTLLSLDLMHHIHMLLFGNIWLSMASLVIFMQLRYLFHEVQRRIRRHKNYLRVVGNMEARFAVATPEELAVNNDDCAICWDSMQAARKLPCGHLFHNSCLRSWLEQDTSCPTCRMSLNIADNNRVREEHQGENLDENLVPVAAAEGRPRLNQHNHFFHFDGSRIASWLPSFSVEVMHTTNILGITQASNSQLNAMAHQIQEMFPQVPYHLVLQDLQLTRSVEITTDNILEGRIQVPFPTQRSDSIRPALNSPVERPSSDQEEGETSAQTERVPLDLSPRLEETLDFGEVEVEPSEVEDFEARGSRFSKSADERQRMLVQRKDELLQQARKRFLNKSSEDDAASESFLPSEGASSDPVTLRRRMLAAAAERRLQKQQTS

Experiment [1] has as its target V1–FAM134C WT and V2–FAM134C WT (UniProt Q86VR2). Briefly: split reporter; BiCAP: V1- and V2-tagged proteins expressed alone or together in HEK 293T; refolded Venus captured on GFP-Trap, western blot; n = 1 experiment. (In western blotting, separated proteins are transferred to a membrane and probed.)
The target of a further experiment is HA–FAM134B WT (UniProt Q9H6L5). Put plainly: cross-linking; isolated membranes of cells expressing HA-FAM134B WT or 17KR treated with 0.3 mM EGS, SDS-PAGE, western blot; n = 1 experiment.
Experiment [2] addresses V1–FAM134B and V2–FAM134B (WT) (UniProt Q9H6L5). Put plainly: split reporter; bimolecular fluorescence complementation of Venus fragments V1 and V2, confocal microscopy of fixed cells.
The target is the same in experiment [3]. Briefly: split reporter; BiCAP: V1- and V2-tagged proteins expressed alone or together in HEK 293T; refolded Venus captured on GFP-Trap, western blot; n = 1 experiment.
In experiment [4] the target is FAM134B 8KR (Flag FAM134B-IP) (UniProt Q9H6L5). Briefly: high-molecular-weight (oligomeric, SDS-resistant) species on immunoblot; Flag FAM134B-IP from lysate of cells expressing FAM134B WT or 8KR, SDS–PAGE, immunoblot; n = 1 experiment.
The target in experiment [5] is Flag FAM134B (wild type of the 8KR experiment) (UniProt Q9H6L5). Described as above.

These are yes or no findings as the source states them, for the method shown. For some of these results: Binding seen in cells or lysates may run through a third protein. Some results given as binding are weak or reduced against the parent protein; the word gives no strength.

“V1–FAM134C WT and V2–FAM134C WT (from UniProt Q86VR2 1-466)”: the binding result in experiment [1] is listed as “binds”.
As to “HA–FAM134B WT (from UniProt Q9H6L5 1-497)”, the binding entry in the experiment with HA–FAM134B WT is “binds”.
For the substance “V1–FAM134B and V2–FAM134B (WT) (from UniProt Q9H6L5 1-497)”, the binding entry in experiment [2] and in experiment [3] was “binds” each time.
On to “AMFR–V2 WT (from UniProt Q9UKV5 1-643) (enzyme)”, for which, in experiment [2], the binding result is “binds”.
With “FAM134B 8KR (Flag FAM134B-IP) (from UniProt Q9H6L5 1-497)”, the binding entry in experiment [4] was “binds”.
Turning to “Flag FAM134B (wild type of the 8KR experiment) (from UniProt Q9H6L5 1-497)”, the binding entry in experiment [5] is on record as “binds”.
